Data as given in PubChem BioAssay AID686943 (Drosophila RNAi Screening Center, 2013).
Aim: 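Fly genes whose loss alters ERK activation after insulin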 (primary screen). System: Drosophila S2R+ haemocyte-like cells expressing YFP-tagged ERK (Rolled). Reagents: long dsRNA against Drosophila genes. Challenge: insulin stimulation versus unstimulated cells; dose and duration not given. Measurement: 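Per-plate z-scores of phospho-ERK immunostaining normalised to YFP-tagged ERK, measured with and without insulin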. Reading the numbers: replicate 1, z-score of dpERK with insulin and replicate 2, z-score of dpERK with insulin: higher = more active ERK per ERK-YFP after insulin; replicate 1, z-score of dpERK under basal conditions: higher = more basal active ERK per ERK-YFP; replicate 1, z-score of ERK-YFP with insulin: higher = more YFP-tagged ERK signal.
The screen tested about 23,000 reagents; this is an unselected part of those with a known target gene and a result. 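Extra replicates exist only for a retested subset of genes; insulin dose and duration not given; both raised and lowered dpERK matter.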 Names joined by + are all predicted targets of the reagent. No sequences are given here. Not stated in the record: the amount of reagent, the time to read-out.

| gene | PubChem SID | replicate 1, z-score of dpERK with insulin | replicate 2, z-score of dpERK with insulin | replicate 1, z-score of dpERK under basal conditions | replicate 1, z-score of ERK-YFP with insulin |
| --- | --- | --- | --- | --- | --- |
| repo (reversed polarity) | SID104196161 | 0.26 | -0.94 | -0.58 | 0.43 |
| Fer3HCH (Ferritin 3 heavy chain homologue) | SID104199684 | -0.03 | 0.44 | 0.23 | 0.48 |
| Cyp9b1 (Cytochrome P450 9b1) | SID104187181 | -0.08 | 0.04 | 0.25 | 0.51 |
| CG13170 | SID104186090 | -1.98 | -2.34 | -1.65 | -0.85 |
| CG14314 | SID104194585 | -0.01 | 0.12 | 0.98 | -0.19 |
| SREBP (Sterol regulatory element binding protein) | SID104190974 | -0.13 | 0.86 | -1.07 | 0.49 |
| CG4942 | SID104190254 | 0.23 | 0.11 | -0.55 | 0.5 |
| btz (barentsz) | SID104194358 | -1.04 | -1.22 | -2.51 | 1.52 |
| mAcon2 (Mitochondrial aconitase 2) | SID104195421 | 0.3 | 0.41 | 1.57 | 0.13 |
| CG13272 | SID104182041 | 0.16 | -0.13 | 0.19 | -0.14 |
| CG13272 | SID104202268 | 0.44 | -0.31 | 0.18 | -0.28 |
| CG33181 | SID104197763 | -0.23 | 0.17 | 0.29 | 0.5 |
| CG33181 | SID104201857 | -1.2 | 0.12 | -0.32 | 0.6 |
| CG3638 | SID104198325 | 0.29 | 1.71 | 0.16 | -0.1 |
| Trm7-34 (tRNA methyltransferase 7-34) | SID104195963 | 0.41 | -0.28 | -1.56 | -0.25 |
| CG11882 | SID104194217 | 0.57 | 0.42 | 0.01 | 0.34 |
| CG13924 | SID104188185 | 2.34 | -0.93 | 0.01 | -0.03 |
| Sfxn2 (Sideroflexin 2) | SID104190510 | -0.79 | 0.33 | -0.29 | 0.36 |
| GstE12 (Glutathione S transferase E12) | SID104183839 | -1.07 | 1.01 | 1.02 | 1.29 |
| CR33318 (pseudo) | SID104202306 | -0.54 | 1.33 | 0.17 | -1.39 |
| CG32447 | SID104191524 | 0.67 | 0.57 | 0.68 | 0.14 |
| CG32447 | SID104191597 | 0.53 | 0.77 | 0.65 | 0.79 |
| CG42853 | SID104189326 | 1.06 | 0.79 | 2.18 | -0.04 |
| CG12560 | SID104181966 | -0.16 | -0.16 | -0.03 | -0.07 |
| Cat (Catalase) | SID104190902 | -0.11 | -0.52 | -0.65 | -0.39 |
| RFeSP (Rieske iron-sulfur protein) | SID104180494 | -1.13 | -1.89 | 0.47 | 1.88 |
| CG14286 | SID104194559 | 0.27 | -0.84 | 0.93 | -0.09 |
| BaraA1 + BaraA2 | SID104185209 | -0.17 | -0.4 | -0.34 | 0.21 |
| Ir75c (Ionotropic receptor 75c) | SID104189982 | 0.18 | -0.3 | 0.22 | 0.17 |
| hrg (hiiragi) | SID104187294 | 0.13 | -0.48 | -1.06 | -1.43 |
| E2f1 (E2F transcription factor 1) | SID104196447 | -0.45 | -4.31 | -3.26 | -7.11 |
| Elba3 (Early boundary activity 3) | SID104180261 | 0.95 | 0.57 | -0.16 | -0.27 |
| CG14731 | SID104194744 | 1.01 | 0.92 | -0.06 | 0.14 |
| CG9806 | SID104198236 | 0.64 | 0.45 | 0.09 | -1.32 |
| mtSSB (mitochondrial single stranded DNA-binding protein) | SID104196797 | 0.14 | 0 | 1.08 | -0.53 |
| CG34225 | SID104185062 | -0.16 | 0.16 | 0.48 | 0.83 |
| mRpS29 (mitochondrial ribosomal protein S29) | SID104184190 | 0.21 | 1.14 | 0.23 | -0.11 |
| CG14327 | SID104194598 | 0.76 | 0.25 | 0.49 | 0.4 |
| Pop2 | SID104190329 | -3.28 | -2.05 | -0.14 | -2.38 |
| nompC (no mechanoreceptor potential C) | SID104183373 | 0.13 | -0.17 | 0.91 | -0.95 |
| Drl-2 (Derailed 2) | SID104185185 | -0.85 | -0.48 | -0.81 | 0.45 |
| Drl-2 (Derailed 2) | SID104185947 | 0 | 0.5 | -0.34 | 0.16 |
| Drl-2 (Derailed 2) | SID104186650 | 0.66 | 0.16 | -0.49 | -0.15 |
| CG42594 | SID104197845 | -4.21 | -1.99 | -3.84 | -5.51 |
| CG42594 | SID104198200 | 0.47 | 0.76 | 0.54 | 0.1 |
| CG5292 | SID104195555 | -0.23 | 0.89 | -0.03 | 0.37 |
| COX6AL2 (Cytochrome c oxidase subunit 6A-like 2) | SID104189874 | 0.84 | 1.09 | -1.11 | -0.38 |
| DUBAI + Tmem18 | SID104185136 | -0.3 | -1.24 | -0.86 | 0.08 |
| CG6428 | SID104198194 | -0.53 | -0.1 | -0.3 | 0.85 |
| Mos (Mos oncogene) | SID104187050 | 0.22 | 0.43 | -1.67 | 0.44 |
| CG11816 | SID104199220 | -0.39 | -0.27 | -2.11 | 0.53 |
| fd96Ca (forkhead domain 96Ca) | SID104196738 | -2.59 | -0.33 | -1.03 | -0.17 |
| oc (ocelliless) | SID104198600 | 0.74 | 0.92 | 0.37 | 0.42 |
| Ras85D (Ras oncogene at 85D) | SID104196606 | -6.29 | -5.58 | -3.91 | -3.14 |
| Nle (Notchless) | SID104180555 | 0.51 | -1.06 | 0.94 | -0.44 |
| chb (chromosome bows) | SID104191261 | 0.82 | 2.03 | 1.95 | -0.35 |
| CG9062 | SID104187119 | 0.08 | 0.45 | 0.01 | 0.51 |

Part of the list above, limited to “replicate 1, z-score of dpERK with insulin”.
hrg (hiiragi) [SID104187294] = 0.13
E2f1 (E2F transcription factor 1) [SID104196447] = -0.45
Elba3 (Early boundary activity 3) [SID104180261] = 0.95
CG14731 [SID104194744] = 1.01
CG9806 [SID104198236] = 0.64
mtSSB (mitochondrial single stranded DNA-binding protein) [SID104196797] = 0.14
CG34225 [SID104185062] = -0.16
